Measured values taken from the supplement of paper PMC12067093, “Discovery and optimisation of a covalent ligand for TRIM25 and its application to targeted protein ubiquitination” (Chemical Science, 2025).
The other results are listed elsewhere or left out.

By UniProt entry, the sequences of proteins in these tests, tags left out. Where a name states a change or a piece, a line headed by the entry shows the natural chain unless it says otherwise.
UniProt Q6KC79: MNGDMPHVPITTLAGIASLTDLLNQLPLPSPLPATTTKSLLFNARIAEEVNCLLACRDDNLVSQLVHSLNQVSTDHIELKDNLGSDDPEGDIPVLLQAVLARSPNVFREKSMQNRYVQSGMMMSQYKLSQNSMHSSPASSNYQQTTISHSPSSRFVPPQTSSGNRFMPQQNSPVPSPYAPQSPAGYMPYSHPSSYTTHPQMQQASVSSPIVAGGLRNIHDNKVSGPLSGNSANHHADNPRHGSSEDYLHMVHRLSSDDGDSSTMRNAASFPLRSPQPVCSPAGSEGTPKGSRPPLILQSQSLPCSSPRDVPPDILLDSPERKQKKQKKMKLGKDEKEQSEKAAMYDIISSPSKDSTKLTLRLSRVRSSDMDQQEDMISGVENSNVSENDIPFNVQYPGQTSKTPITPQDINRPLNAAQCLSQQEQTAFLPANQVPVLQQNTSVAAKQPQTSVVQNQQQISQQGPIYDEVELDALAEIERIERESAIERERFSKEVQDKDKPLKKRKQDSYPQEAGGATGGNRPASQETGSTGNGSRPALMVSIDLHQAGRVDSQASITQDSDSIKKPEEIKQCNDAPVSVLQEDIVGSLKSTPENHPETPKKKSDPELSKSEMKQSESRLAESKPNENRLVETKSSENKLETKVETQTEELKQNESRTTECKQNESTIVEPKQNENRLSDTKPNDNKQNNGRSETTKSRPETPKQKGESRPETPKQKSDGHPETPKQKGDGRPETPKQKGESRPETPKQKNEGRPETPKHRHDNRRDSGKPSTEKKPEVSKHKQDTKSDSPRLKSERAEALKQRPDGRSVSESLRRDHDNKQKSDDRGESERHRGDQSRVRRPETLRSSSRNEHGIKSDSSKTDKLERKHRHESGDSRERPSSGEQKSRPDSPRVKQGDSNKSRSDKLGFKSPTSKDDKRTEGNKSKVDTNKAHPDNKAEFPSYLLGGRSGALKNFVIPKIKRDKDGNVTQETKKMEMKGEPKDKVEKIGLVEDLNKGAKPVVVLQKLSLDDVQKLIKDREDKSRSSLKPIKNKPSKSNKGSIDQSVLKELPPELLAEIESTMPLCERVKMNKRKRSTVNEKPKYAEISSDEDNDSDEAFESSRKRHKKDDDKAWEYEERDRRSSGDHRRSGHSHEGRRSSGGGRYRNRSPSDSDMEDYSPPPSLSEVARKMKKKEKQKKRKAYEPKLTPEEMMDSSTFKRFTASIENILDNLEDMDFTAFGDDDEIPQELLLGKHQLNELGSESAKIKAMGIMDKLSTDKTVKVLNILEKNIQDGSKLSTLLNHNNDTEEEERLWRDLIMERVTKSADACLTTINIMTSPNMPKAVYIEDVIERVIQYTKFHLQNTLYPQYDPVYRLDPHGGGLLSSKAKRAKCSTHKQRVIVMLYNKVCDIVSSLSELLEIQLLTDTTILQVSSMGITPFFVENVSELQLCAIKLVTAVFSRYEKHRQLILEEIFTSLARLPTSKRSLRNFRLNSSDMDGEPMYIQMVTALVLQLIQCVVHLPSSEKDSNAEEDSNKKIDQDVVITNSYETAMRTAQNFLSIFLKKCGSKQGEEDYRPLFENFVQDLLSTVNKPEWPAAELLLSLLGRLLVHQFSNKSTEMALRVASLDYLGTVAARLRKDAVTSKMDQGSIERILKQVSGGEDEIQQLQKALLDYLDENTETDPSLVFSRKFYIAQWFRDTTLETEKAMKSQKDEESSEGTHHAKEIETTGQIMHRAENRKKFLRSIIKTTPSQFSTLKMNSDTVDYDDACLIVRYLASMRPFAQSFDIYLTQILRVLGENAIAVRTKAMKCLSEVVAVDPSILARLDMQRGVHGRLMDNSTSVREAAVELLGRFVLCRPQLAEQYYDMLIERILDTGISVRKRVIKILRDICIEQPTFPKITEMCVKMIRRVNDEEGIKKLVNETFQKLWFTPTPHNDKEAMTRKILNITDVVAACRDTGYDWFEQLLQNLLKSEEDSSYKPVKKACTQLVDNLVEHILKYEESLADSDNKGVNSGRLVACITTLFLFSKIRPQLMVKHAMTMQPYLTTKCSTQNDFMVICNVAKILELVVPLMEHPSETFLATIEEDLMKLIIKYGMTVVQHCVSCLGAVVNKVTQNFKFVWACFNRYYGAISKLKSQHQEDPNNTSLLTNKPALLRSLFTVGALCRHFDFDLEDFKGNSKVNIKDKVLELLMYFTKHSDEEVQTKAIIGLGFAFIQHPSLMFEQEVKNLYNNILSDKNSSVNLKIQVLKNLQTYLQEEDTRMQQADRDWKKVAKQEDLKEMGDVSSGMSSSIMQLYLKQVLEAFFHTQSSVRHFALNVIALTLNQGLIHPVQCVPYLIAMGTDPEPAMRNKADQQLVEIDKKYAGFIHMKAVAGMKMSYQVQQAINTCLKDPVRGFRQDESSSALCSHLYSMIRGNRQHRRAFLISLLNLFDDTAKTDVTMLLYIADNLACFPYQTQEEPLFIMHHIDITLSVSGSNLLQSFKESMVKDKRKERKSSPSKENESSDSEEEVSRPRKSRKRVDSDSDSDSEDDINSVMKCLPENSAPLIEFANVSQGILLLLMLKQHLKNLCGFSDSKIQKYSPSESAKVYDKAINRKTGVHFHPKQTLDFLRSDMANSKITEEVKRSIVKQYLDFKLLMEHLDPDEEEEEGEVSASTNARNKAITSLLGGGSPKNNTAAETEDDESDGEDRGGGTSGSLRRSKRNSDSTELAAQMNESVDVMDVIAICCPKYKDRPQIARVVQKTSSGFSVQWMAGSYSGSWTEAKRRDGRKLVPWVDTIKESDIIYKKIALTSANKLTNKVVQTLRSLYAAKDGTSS
UniProt Q9BYG3: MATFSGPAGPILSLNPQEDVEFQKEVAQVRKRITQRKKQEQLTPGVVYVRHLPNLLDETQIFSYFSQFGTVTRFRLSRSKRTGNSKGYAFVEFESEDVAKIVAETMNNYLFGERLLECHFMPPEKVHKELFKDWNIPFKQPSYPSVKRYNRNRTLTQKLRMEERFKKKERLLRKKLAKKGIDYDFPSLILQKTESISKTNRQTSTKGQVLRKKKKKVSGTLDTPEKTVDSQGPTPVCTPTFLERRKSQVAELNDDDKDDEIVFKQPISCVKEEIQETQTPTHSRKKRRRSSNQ
UniProt Q8N4C6: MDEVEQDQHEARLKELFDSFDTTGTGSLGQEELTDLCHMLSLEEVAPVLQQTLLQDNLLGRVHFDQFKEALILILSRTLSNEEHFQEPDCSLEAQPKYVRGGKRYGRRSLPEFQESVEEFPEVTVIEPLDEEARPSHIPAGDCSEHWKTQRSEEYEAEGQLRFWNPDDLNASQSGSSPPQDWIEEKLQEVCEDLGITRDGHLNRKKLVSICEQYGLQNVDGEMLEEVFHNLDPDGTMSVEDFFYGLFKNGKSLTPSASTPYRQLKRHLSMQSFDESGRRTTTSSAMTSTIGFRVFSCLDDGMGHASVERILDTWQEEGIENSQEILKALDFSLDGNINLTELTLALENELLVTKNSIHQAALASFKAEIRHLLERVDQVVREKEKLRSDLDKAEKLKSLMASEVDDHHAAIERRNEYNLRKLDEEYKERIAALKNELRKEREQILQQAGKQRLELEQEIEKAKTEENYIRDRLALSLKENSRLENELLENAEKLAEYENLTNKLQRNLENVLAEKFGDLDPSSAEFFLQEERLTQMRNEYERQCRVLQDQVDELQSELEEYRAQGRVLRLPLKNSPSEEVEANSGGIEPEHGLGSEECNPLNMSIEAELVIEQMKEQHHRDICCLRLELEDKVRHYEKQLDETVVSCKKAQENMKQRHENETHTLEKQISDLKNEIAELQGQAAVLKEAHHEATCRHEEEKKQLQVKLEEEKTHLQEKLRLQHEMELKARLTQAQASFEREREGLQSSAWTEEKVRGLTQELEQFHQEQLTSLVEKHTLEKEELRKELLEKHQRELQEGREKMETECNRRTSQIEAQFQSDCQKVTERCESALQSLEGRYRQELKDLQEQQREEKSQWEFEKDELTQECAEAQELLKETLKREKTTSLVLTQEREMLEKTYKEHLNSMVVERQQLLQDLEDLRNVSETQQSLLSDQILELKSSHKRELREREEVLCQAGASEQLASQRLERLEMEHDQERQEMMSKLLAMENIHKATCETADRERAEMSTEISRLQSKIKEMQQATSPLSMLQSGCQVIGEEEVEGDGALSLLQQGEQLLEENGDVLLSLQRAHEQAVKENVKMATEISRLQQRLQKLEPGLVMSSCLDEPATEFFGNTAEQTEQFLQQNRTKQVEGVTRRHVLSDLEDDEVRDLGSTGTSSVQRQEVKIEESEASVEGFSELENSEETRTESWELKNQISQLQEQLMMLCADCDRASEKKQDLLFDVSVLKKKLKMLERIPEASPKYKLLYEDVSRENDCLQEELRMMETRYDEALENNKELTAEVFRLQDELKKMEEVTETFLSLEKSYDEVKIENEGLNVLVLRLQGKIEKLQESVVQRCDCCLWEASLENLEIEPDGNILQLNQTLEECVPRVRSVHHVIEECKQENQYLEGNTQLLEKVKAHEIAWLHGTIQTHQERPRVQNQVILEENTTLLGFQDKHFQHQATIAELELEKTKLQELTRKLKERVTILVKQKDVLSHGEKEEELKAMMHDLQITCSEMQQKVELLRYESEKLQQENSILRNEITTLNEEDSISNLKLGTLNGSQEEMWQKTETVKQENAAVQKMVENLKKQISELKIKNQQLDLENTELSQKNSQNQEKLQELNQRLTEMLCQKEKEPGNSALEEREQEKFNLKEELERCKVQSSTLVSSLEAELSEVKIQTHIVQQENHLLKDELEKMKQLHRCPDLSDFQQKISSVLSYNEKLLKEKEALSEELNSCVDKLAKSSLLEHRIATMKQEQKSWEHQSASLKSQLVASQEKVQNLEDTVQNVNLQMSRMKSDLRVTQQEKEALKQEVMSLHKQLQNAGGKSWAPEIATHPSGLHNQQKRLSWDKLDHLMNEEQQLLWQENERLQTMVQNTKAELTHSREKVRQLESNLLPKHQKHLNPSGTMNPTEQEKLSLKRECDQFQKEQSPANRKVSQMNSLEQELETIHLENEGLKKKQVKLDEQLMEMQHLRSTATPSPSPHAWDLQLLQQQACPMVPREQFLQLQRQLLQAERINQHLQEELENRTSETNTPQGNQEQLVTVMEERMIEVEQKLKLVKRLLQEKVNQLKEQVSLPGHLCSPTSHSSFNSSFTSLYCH
UniProt Q9UGV2: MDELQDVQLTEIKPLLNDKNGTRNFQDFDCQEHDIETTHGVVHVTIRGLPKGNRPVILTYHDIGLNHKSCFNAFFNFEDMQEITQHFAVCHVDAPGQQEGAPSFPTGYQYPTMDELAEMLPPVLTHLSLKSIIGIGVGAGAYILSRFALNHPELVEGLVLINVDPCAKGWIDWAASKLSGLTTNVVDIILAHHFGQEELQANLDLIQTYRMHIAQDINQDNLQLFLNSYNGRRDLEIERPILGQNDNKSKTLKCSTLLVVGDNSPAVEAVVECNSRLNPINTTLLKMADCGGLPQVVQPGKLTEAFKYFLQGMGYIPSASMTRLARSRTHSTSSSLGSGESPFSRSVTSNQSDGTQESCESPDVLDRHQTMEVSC
UniProt O43678, whole entry, looked up: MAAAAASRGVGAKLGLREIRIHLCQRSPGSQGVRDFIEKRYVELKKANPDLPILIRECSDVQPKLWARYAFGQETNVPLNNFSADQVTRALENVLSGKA
UniProt P51970, whole entry, looked up: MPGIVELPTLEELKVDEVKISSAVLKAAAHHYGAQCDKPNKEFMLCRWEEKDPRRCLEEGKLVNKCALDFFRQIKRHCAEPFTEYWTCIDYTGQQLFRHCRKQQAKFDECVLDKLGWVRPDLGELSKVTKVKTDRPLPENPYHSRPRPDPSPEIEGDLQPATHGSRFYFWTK
UniProt Q86X76: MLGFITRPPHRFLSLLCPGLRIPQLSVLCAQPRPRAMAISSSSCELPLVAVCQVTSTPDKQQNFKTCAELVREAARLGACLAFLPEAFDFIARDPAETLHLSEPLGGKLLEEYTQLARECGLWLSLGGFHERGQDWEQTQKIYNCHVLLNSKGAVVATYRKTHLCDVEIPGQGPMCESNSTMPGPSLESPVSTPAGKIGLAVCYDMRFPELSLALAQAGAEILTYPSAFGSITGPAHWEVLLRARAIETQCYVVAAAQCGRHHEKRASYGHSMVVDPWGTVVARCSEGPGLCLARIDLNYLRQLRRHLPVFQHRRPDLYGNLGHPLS

compound: Cc1cc(ccc1-c1ccccc1)C(=O)N1CCCN(CC1)C(=O)CCl [compound 10]; assay: probe-labelled cysteine peptide fold change vs DMSO (competition) (log2 fold change); higher = less target engagement (more negative = stronger competition); details: 10 µM; THP-1; incubation time: 4 h
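Note: competitive profiling in live THP-1 cells: cysteine peptides tagged with an iodoacetamide desthiobiotin (IA-DTB) probe, intensity after compound treatment relative to DMSO-treated cells.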

Row | Target | probe-labelled cysteine peptide fold change
1 | NIPBL_Q6KC79_573_QCNDAPVSVLQEDIVGSLK (UniProt Q6KC79) | -0.146
2 | NIFK_Q9BYG3_237_TVDSQGPTPVCTPTFLER (UniProt Q9BYG3) | -0.298
3 | NGLY1_Q96IV0_283_EVEDHYCDACQFSNRFPR (UniProt Q96IV0) | 0.102
4 | NIN_Q8N4C6_1502_AMMHDLQITCSEMQQK (UniProt Q8N4C6) | -0.00943
5 | NDRG3_Q9UGV2_359_SVTSNQSDGTQESCESPDVLDR (UniProt Q9UGV2) | -0.0455
6 | NCOR2_Q9Y618_466_TVAECVLYYYLTK (UniProt Q9Y618) | 0.0485
7 | NDUFS1_P28331_75_LSVAGNCR (UniProt P28331) | -0.0766
8 | NEK9_Q8TD19_657_VSCGDEFTIAATDDNHIFAWGNGGNGR (UniProt Q8TD19) | 0.0253
9 | NEMF_O60524_201_VLNPLLPYGPALIEHCLLENGFSGNVK (UniProt O60524) | 0.0796
10 | NIPBL_Q6KC79_2151_SLFTVGALCR (UniProt Q6KC79) | 0.186
11 | NDUFA2_O43678_58_ECSDVQPK (UniProt O43678) | -0.309
12 | NID1_P14543_679_EGSPDALQNPCYIGTHGCDTNAACRPGPR (UniProt P14543) | 0.0439
13 | NIN_Q8N4C6_1261_LLYEDVSRENDCLQEELR (UniProt Q8N4C6) | -0.041
14 | NDUFA8_P51970_66_CALDFFR (UniProt P51970) | -0.175
15 | NIT1_Q86X76_145_IYNCHVLLNSK (UniProt Q86X76) | 0.128
16 | NEK4_P51957-2_463_DQDQVAGECIIEK (UniProt P51957) | -0.194
